The list shows a part of the results. These are further read-outs of the screen, such as a control signal, another cell line or another target. No call is given for them. Most of these compounds were active or inconclusive in the main read-out, so they are no random draw. The note in brackets gives the kind of curve behind each potency; many fits are weak.
Test: qHTS Assay to Find Inhibitors of Chronic Active B-Cell Receptor Signaling
Conditions: ABC-DLBCL IkBa-CBG/CBR reporter, luminescence ratio (green luciferase fused to IkBa over red control in TMD8 lymphoma cells), 4 h
Summary of the method: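 Compounds up to 46 uM were incubated four hours with TMD8 cells whose green CBG68 luciferase is fused to IkappaBalpha; red CBR luminescence normalised the signal, and concentration-effect curves were fitted to fusion, red and ratio data.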

[1] = measured here: IkBa-CBG green luminescence
[2] = measured here: CBR red luminescence, cell number

Row | SMILES | AC50 [1] | AC50 [2]
1 | Cc1oc(-c2ccccc2)cc1C(=O)Nc1cccc(/C=C\C(=O)O)c1 | 0.112 µM [rising, full curve, poor fit] | 
2 | COC(=O)c1ccc2c(C(C)(C)O)c(C(C)(C)O)[nH]c2c1 |  | 15.8 µM [rising, single point]
3 | COc1ccc(C(F)(F)F)cc1N/C=C\c1nnnn1-c1ccccc1 |  | 10 µM [rising, partial curve]
4 | CCOC(=O)c1c(NC(=O)Cn2cc([N+](=O)[O-])cn2)sc2c1CCC2 |  | 3.55 µM [falling, partial curve, poor fit]
5 | COc1ccc(C2CC3(CC(C)(C)NC(=O)N3)Oc3cc(O)ccc32)cc1 (stereo unspecified) |  | 12.6 µM [falling, partial curve]
6 | CC(=O)C1=C(c2ccccc2)N(C(C)=O)n2c(C)nnc2S1 |  | 17.8 µM [falling, single point]
7 | Cc1ccc(NC(=O)C(=O)c2c[nH]c3ccccc23)cc1 |  | 1.12 µM [falling, full curve]
8 | Cn1c(=NCC(O)COc2ccccc2)sc2ccccc21 (stereo unspecified) |  | 22.4 µM [falling, single point]
9 | O=C(Nc1nc2c(F)cccc2s1)c1ccco1 |  | 11.2 µM [falling, partial curve]
10 | Cc1ccc(NC(=O)COC(=O)C2CSC3(C)CCC(=O)N23)cc1S(=O)(=O)N1CCOCC1 (stereo unspecified) |  | 8.91 µM [rising, partial curve, poor fit]
11 | Cc1ccc(S(=O)(=O)CC(=O)c2cc(C)c(O)c(C)c2)cc1 |  | 1.78 µM [rising, full curve, poor fit]
12 | CCCNc1c(NS(=O)(=O)c2ccc(OC)c(OC)c2)c(=O)oc2ccccc12 |  | 4.47 µM [falling, full curve]
13 | COc1ccc(/C=N/n2c(=S)n(C)c3ccccc32)cc1OC | 18.4 µM [falling, partial curve, poor fit] | 25.9 µM [rising, partial curve]
14 | COC(=O)c1cc2oc(C)cc2n1CC(=O)Nc1cc(C)cc(C)c1 |  | 0.116 µM [falling, full curve, poor fit]
15 | CCCCC1=CC2=CC(=O)C(C)(OC(=O)CC)C(=O)C2=CN1CCN1CCOCC1 (stereo unspecified) |  | 35.5 µM [rising, single point]
16 | COc1ccccc1NC(=O)CSc1nnc(C2CCCCC2)n1N |  | 7.08 µM [falling, partial curve, poor fit]
17 | O=C1NC(=S)S/C1=C\c1coc2ccccc2c1=O |  | 3.16 µM [rising, full curve, poor fit]
18 | CN1C(=O)C2(SCC(=O)N2c2ccc(Cl)cc2)c2ccccc21 (stereo unspecified) |  | 35.5 µM [falling, single point]
19 | COc1ccc(C(CC(=O)N2CCN(c3ccccc3)CC2)c2c(O)cc(OC)cc2OC)cc1 (stereo unspecified) |  | 35.5 µM [falling, single point]
20 | CC(=O)NC(Cc1ccc(C)cc1)C(=O)NC1CCN(c2ncccc2[N+](=O)[O-])CC1 (stereo unspecified) |  | 20.6 µM [rising, partial curve, poor fit]
21 | COc1cccc(NC(=O)/C=C/c2ccccc2[N+](=O)[O-])c1 |  | 23.1 µM [falling, partial curve, poor fit]

A second format for part of the listing above:

| Row | SMILES | AC50 [1] | AC50 [2] |
| --- | --- | --- | --- |
| 8 | Cn1c(=NCC(O)COc2ccccc2)sc2ccccc21 (stereo unspecified) |  | 22.4 µM [falling, single point] |
| 9 | O=C(Nc1nc2c(F)cccc2s1)c1ccco1 |  | 11.2 µM [falling, partial curve] |
| 20 | CC(=O)NC(Cc1ccc(C)cc1)C(=O)NC1CCN(c2ncccc2[N+](=O)[O-])CC1 (stereo unspecified) |  | 20.6 µM [rising, partial curve, poor fit] |

The listing continues:

Row | SMILES | AC50 [1] | AC50 [2]
22 | Cc1ccc(-n2ncc3c(SCc4ccccc4)ncnc32)cc1 | 23.1 µM [rising, partial curve, poor fit] | 
23 | O=C(Nc1ccc2[nH]ccc2c1)c1ccccc1 |  | 14.1 µM [falling, partial curve]
24 | Cc1cccc(NC(=O)c2nc[nH]c2C(=O)N2CCc3ccccc3C2)c1 |  | 0.82 µM [falling, full curve, poor fit]
25 | CCN1CCc2c(OCC(=O)N3CCCc4ccccc43)cccc2C1=O |  | 0.562 µM [falling, full curve, poor fit]
26 | Cc1cc(C)n2nc(SCC(=O)c3cccs3)nc2n1 |  | 35.5 µM [falling, single point]
27 | COc1ccccc1N1CCN(C2CCCCC2NS(=O)(=O)c2ccc(Cl)cc2)CC1 (stereo unspecified) |  | 5.01 µM [rising, partial curve]
28 | COc1cc(OC)c(-n2cc(-c3ccc(OC)c(OC)c3)[nH]c2=S)cc1Cl |  | 1.58 µM [rising, partial curve, poor fit]
29 | O=C(Nc1ccc(S(=O)(=O)N2CCc3ccccc32)cc1)c1ccco1 |  | 10 µM [falling, partial curve, poor fit]
30 | Cc1ccc(N(Cc2ccccc2)C(=O)Cc2ccc(S(=O)(=O)N3CCOCC3)s2)cc1 |  | 29.1 µM [falling, single point]
31 | O=C(CN1CC(=O)Oc2ccccc21)NCc1ccco1 |  | 11.2 µM [falling, partial curve]
32 | COc1cccc(N2C(=O)C(O)=C(C(C)=O)C2c2ccc(OC)c(OC)c2)c1 (stereo unspecified) |  | 18.4 µM [rising, single point]
33 | Cc1nn(Cc2ccccc2Cl)c(C)c1C(=O)Nc1nnc(C2CC2)s1 |  | 4.47 µM [falling, single point]
34 | CC1CCc2c(C(=O)NCc3ccco3)csc2C1 (stereo unspecified) |  | 2.24 µM [falling, full curve, poor fit]
35 | CCCCC(CC)CNC(=O)C(=O)c1ccccc1NC(C)=O (stereo unspecified) |  | 8.2 µM [rising, partial curve, poor fit]
36 | Cn1c(Oc2ccccc2)c(C=O)c2ccccc21 |  | 5.01 µM [rising, full curve]
37 | CCOc1ccc2[nH]c(C(=O)N/N=C/c3ccccc3OC)cc2c1 | 15.8 µM [falling, partial curve, poor fit] | 35.5 µM [rising, single point]
38 | CCOc1cc(NC(=S)Nc2ccccc2OC)c(OCC)cc1NC(=O)c1ccccc1C |  | 15.8 µM [falling, partial curve]
39 | CCOc1ccc(OCC)c(S(=O)(=O)n2cc(C)nc2CC)c1 |  | 10 µM [rising, partial curve]
40 | CC(C)(C)NCC(O)CON=C1c2ccccc2-c2ccccc21 (stereo unspecified) |  | 22.4 µM [falling, single point]
41 | CC12OC1C1(O)CCCC1=CC2=O (stereo unspecified) |  | 35.5 µM [falling, single point]
42 | Cc1ccc(S(C)(=O)=O)cc1C(=O)NC(C)C1CC2CCC1C2 (stereo unspecified) |  | 3.16 µM [rising, partial curve, poor fit]

Row | SMILES | AC50 [1] | AC50 [2]
43 | COc1ccc(Nc2nc(Cl)nc(N3CCN(c4ccc(OC)cc4)CC3)n2)cc1 |  | 0.355 µM [rising, full curve, poor fit]
44 | CCOc1ccc(N(CC(=O)Nc2ccc(OC)cc2)C2=NC3CS(=O)(=O)CC3S2)cc1 (stereo unspecified) |  | 3.98 µM [falling, single point]
45 | Cc1nn(C)c(NC(=O)c2ccc(Cl)cc2)c1Cl |  | 3.98 µM [rising, partial curve, poor fit]
46 | Cc1cc(C(=O)CSc2nnnn2-c2ccc(O)cc2)c(C)n1Cc1ccc2c(c1)OCO2 |  | 29.1 µM [falling, single point]
47 | Cc1ccccc1-c1ccc(C(=O)Nc2cccc(F)c2)o1 |  | 23.1 µM [falling, single point]
48 | CCc1nc2scc(-c3ccccc3)c2c(=O)n1N |  | 2.06 µM [rising, partial curve, poor fit]
49 | O=C(c1ccncc1)c1ccc([N+](=O)[O-])cc1 |  | 35.5 µM [rising, single point]
50 | Cc1cccc(N2C(=O)SC(SC(=Nc3ccccc3)Nc3ccccc3)C2=O)c1 (stereo unspecified) |  | 25.9 µM [falling, partial curve]
51 | O=C(NCc1ccccc1)C(c1ccccn1)N(C(=O)c1csnn1)c1ccccc1F (stereo unspecified) |  | 10 µM [falling, partial curve, poor fit]
52 | O=C(C1COc2ccccc2O1)N1CCN(c2ccccn2)CC1 (stereo unspecified) |  | 9.2 µM [rising, partial curve, poor fit]
53 | COc1ccc(C)cc1Nc1ncnc2c1c(-c1ccccc1)cn2-c1ccc(C)cc1 |  | 20 µM [rising, single point]
54 | COc1ccc(-c2noc(-c3ccccc3F)n2)cc1 |  | 11.6 µM [falling, single point]
55 | O=C(NCCN1CCN(c2ccccc2)CC1)c1cccn2c(=O)c3cc(Cl)ccc3nc12 |  | 20.6 µM [rising, single point]
56 | COc1ccccc1C(=O)NNC(=O)C(=O)Nc1ccc(C)cc1 |  | 4.47 µM [falling, partial curve, poor fit]
57 | CCOc1ccc(C(c2c(C)[nH][nH]c2=O)c2c(C)[nH][nH]c2=O)cc1OC |  | 12.6 µM [falling, partial curve, poor fit]
58 | CCOCCn1ccc2c(OCC(=O)Nc3cccc(F)c3)cccc2c1=O |  | 35.5 µM [falling, partial curve, poor fit]
59 | Cc1cc(C)nc(SCc2ccc(Br)cc2)n1 |  | 8.91 µM [rising, partial curve]
60 | CCCOc1ccccc1/C=C1\SC(N2CCCCC2)=NC1=O |  | 35.5 µM [falling, single point]
61 | O=C(Nc1ccc(Cl)cc1)[C@@H]1[C@@H]2C(=O)N(c3ccc(Cl)cc3Cl)C(=O)[C@@H]2[C@H]2C=CC=NN21 |  | 0.461 µM [falling, full curve, poor fit]
62 | COCCCn1c(N)c(-c2nc3ccccc3n2C)c2nc3ccccc3nc21 | 18.4 µM [falling, partial curve, poor fit] | 10.3 µM [rising, partial curve, poor fit]
63 | Cc1c(-c2cccc(NC(=O)c3ccco3)c2)nc2ncccn12 |  | 35.5 µM [falling, single point]

Reference: PubChem BioAssay AID493014 (National Center for Advancing Translational Sciences (NCATS), 2011)
